Experimental data taken from US10092568B2, “CBP/Catenin antagonists for enhancing asymmetric division of somatic stem cells” (University of Southern California, priority 2010, dated 2018).
For at least one compound, name, drawing or mass did not settle the structure.

Key:
[1] = system: human skin (surgical waste); assay: Ex vivo human skin assay, qRT-PCR; type: cell-based; settings: 24 hrs; 5 uM ICG-001, 5 uM methylated ICG-001, 1 ug/ml RA
Procedure: Methods. Ex Vivo human skin assay culture conditions were based upon a paper by Varani J et al Experimental and Molecular Pathology, 2004.
Briefly, human skin (surgical waste from plastic surgery procedures) was obtained and the subcutaneous layer of fat was trimmed manually with a scalpel. The skin was then cut into small fragments about 2 mm square and placed in 6 well plates. 1 ml of keratinocyte culture medium (Gibco 10724-011) with 1% P/S (penstrep antibiotic) was added to each well. The epidermis, bathed in media was placed facing up. On the next day (overnight culture in the media above), the skin fragments were transferred to fresh wells that contained either 5 uM ICG-001, 5-uM methylated ICG-001 or 1 ug/ml of retinoic acid (RA). After 24 hrs, skin samples in culture were removed for RNA isolation and qRT-PCR analysis of genes of interest (e.g., elastin (a gene involved in skin appearance and pliability (e.g., wrinkling)) and aquaporin 1, which is involved with hydration.

[2] = system: bleomycin-induced pulmonary fibrosis; assay: Bleomycin-induced lung injury / pulmonary fibrosis; type: in vivo, mouse; settings: 1 mg/kg per day, 10-d period

CC1=C(/C=C/C(C)=C/C=C/C(C)=C/C(=O)O)C(C)(C)CCC1 [RA, retinoic acid, reference compound]
expression of aquaporin 1 [1]: increase
expression of elastin [1]: increase

C[C@@H]1C[C@H]2[C@@H]3CCC4=CC(=O)C=C[C@]4(C)[C@@]3(F)[C@@H](O)C[C@]2(C)[C@@]1(O)C(=O)CO [dexamethasone, reference compound]
inflammatory cell infiltrate [2]: significantly reduced
interstitial and alveolar fibrosis [2]: unaffected
